Assay results from patent US20170029467 (published 2017).

What was measured:
[1] = general procedure: Fmoc solid-phase peptide synthesis; Wang resin; settings: whole synthesis, run 1
[2] = Fmoc solid-phase peptide synthesis; Wang resin; settings: whole synthesis, run 2

D-Phe^1-Pro^2-Arg(Pbf)^3-Pro^4-Gly^5-Gly^6-Gly^7-Gly^8-Asn(Trt)^9-Gly^10-Asp(OtBu)^11-Phe^12-Glu(OtBu)^13-Glu(OtBu)^14-Ile^15-Pro^16-Glu(OtBu)^17-Glu(OtBu)^18-Tyr(tBu)^19-Leu^20
crude HPLC purity [1]: 85%
crude HPLC purity [2]: 87%
